This experiment is described as follows: qHTS Assay to Find Inhibitors of Chronic Active B-Cell Receptor Signaling. The following applies: ABC-DLBCL IkBa-CBG/CBR reporter, luminescence ratio (green luciferase fused to IkBa over red control in TMD8 lymphoma cells), 4 h. Put shortly:
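Compounds up to 46 uM were incubated four hours with TMD8 cells whose green CBG68 luciferase is fused to IkappaBalpha; red CBR luminescence normalised the signal, and concentration-effect curves were fitted to fusion, red and ratio data.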
Background: qHTS replaces the single test concentration by a dilution series.

[1] abbreviates: measured here: CBR red luminescence, cell number.
Where [2] appears, read: measured here: IkBa-CBG green luminescence.

Where “and” joins values, the source holds several entries; their conditions need not be identical. Equal values may be shown once. Some of the results follow. Further columns of the screen follow, without active or inactive calls. The list favours compounds with an active or inconclusive main result. Potencies come from curve fits of mixed quality, noted in brackets.

The term AC50 denotes the concentration giving half of the maximal activity seen. As to `O=C(COc1ccc(/C=N/NC(=O)c2ccccc2O)cc1)Nc1ccc([N+](=O)[O-])cc1`, the AC50 under setting [1] was 3.66 µM [falling, partial curve, poor fit].
As to `COc1ccc(-c2csc(NC(=O)COC(=O)c3ccc(Br)o3)n2)cc1`, the AC50 under setting [1] is 0.13 µM [rising, full curve, poor fit].
Regarding `O=C(NC(=S)N1CCN(c2ccc([N+](=O)[O-])cc2)CC1)c1ccccc1`, under setting [1], the AC50 is 0.708 µM [falling, full curve].
For the compound `O=C(CCl)Nc1ccc2c(c1)OCO2`, the AC50 under setting [1] was 4.47 µM [falling, partial curve, poor fit].
Turning to `Cc1nc2ccccn2c1C(=O)N/N=C/c1ccc([N+](=O)[O-])cc1`, the AC50 under setting [1] is 7.08 µM [falling, partial curve, poor fit].
For the compound `N#C/C(=C/c1ccccc1)C(=O)OCC(=O)Nc1ccccc1[N+](=O)[O-]`, the AC50 under setting [1] was 29.1 µM [rising, single point].
For `Cc1nnc(SCc2cccc(CSc3nnc(C)s3)c2)s1`, the AC50 under setting [1] was 2.59 µM [rising, single point].
With `O=C(CN(C(=O)CNC(=O)c1cccs1)c1ccc(F)cc1)NC1CCCC1`, under setting [1], the AC50 was 0.112 µM [rising, full curve, poor fit].
With `COc1ccc(-c2c(C)c3ccc(O)cc3oc2=O)cc1OC`, the AC50 by setting is: under setting [1], 14.1 µM [rising, partial curve, poor fit]; under setting [2], 12.6 µM [falling, partial curve].
For `CCC(C(=O)NCc1ccco1)N(Cc1cccs1)C(=O)CNS(=O)(=O)c1ccccc1` (stereo unspecified), under setting [1], the AC50 was 16.4 µM [falling, single point].
Take `O=C(COC(=O)Cc1ccc(S(=O)(=O)N2CCOCC2)s1)Nc1ccc(OC(F)F)cc1`: under setting [1], the AC50 was 4.11 µM [rising, single point].
Take `O=C(CC1N=C2c3ccccc3N=C(SCC(=O)Nc3ccc(F)cc3)N2C1=O)NCc1cccs1` (stereo unspecified): the AC50 is 2.24 µM [falling, full curve] under setting [1] and 12.6 µM [rising, partial curve, poor fit] under setting [2].
On to `O=S(=O)(Nc1ccc(S(=O)(=O)Nc2cccc3ccccc23)cc1)c1ccccc1`, for which the AC50 under setting [1] is 0.0206 µM [falling, full curve, poor fit].
`Fc1ccc(/C=C/c2nnc(-c3cccs3)o2)cc1`: the AC50 under setting [1] was 7.31 µM [falling, partial curve].
As to `CCc1ccc(NC(=O)C(=O)NCC2CCCO2)cc1` (stereo unspecified), the AC50 under setting [1] is 35.5 µM [falling, single point].
In the case of `COC(=O)CCC(=O)Nc1nccs1`, under setting [1], the AC50 is 1.41 µM [rising, partial curve, poor fit].
For `CCC1CCCCN1CCCNC(=O)CCCOc1cc(=O)n(C)c2ccccc12` (stereo unspecified), the AC50 under setting [1] is 28.2 µM [rising, single point].
In the case of `COc1ccccc1-n1cnc2c(c1=O)c1nc3ccccc3nc1n2-c1ccc(C)cc1`, the AC50 under setting [1] is 5.8 µM [falling, full curve, poor fit].
On the same count and under the same terms, for `COc1cc(-c2nc(-c3cccc(C(F)(F)F)c3)no2)cc(OC)c1OC` the value was 5.8 µM [rising, partial curve, poor fit]; for `CCCCn1c(SCC(=O)c2ccc3c(c2)OCCO3)nnc1-c1ccco1`, 2.59 µM [rising, full curve, poor fit].
On to `CN(C)c1ccc(N=Nc2cccc3ccoc23)cc1`, for which, under setting [1], the AC50 is 22.4 µM [falling, single point].
As to `COc1ccccc1CNC(=O)[C@H](NC(=O)C1CCN(C(=O)[C@@H](N)CCSC)CC1)C(C)C`, under setting [1], the AC50 was 2.82 µM [rising, partial curve].
Still for that read-out and setting: next, `COc1ccc(NC(=O)CN2CCC(NC(=O)C3CCCCC3)CC2)c([N+](=O)[O-])c1`: 12.6 µM [rising, partial curve, poor fit]; `O=C(Nc1ccc2oc(-c3cccnc3)nc2c1)c1cccnc1`: 1.41 µM [falling, partial curve, poor fit].
For the compound `CCOC(=O)C1=C(COC(=O)/C=C/c2ccc(C)o2)NC(=O)NC1C` (stereo unspecified), under setting [1], the AC50 is 10.3 µM [rising, partial curve, poor fit].
With `COc1cccc(-c2cc(C(F)(F)F)nc(NCc3ccco3)n2)c1`, under setting [2], the AC50 was 20.6 µM [rising, partial curve, poor fit].
On to `CC1CN(S(=O)(=O)c2ccc(C(=O)Nc3sccc3C(N)=O)cc2)CC(C)O1` (stereo unspecified), for which the AC50 under setting [1] was 0.146 µM [rising, partial curve, poor fit].
Same read-out and setting: next, `COc1cc(OC)cc(-c2nc(N)n[nH]2)c1`: 20.6 µM [rising, single point]; `N#CCOc1nc(N2CCOCC2)nc(N2CCOCC2)n1`: 4.61 µM [falling, partial curve, poor fit]; `Fc1ccc(-n2nnc(-c3ccccc3Cl)n2)cc1`: 17.8 µM [rising, partial curve, poor fit].
Consider `CC(=O)Nc1cccc(NC(=O)c2oc3ccccc3c2C)c1`, for which the AC50 under setting [1] was 5.8 µM [falling, partial curve, poor fit].
On to `O=C(CSc1nc2ccccc2c2nc3ccccc3n12)NCc1ccco1`, for which, under setting [1], the AC50 was 3.26 µM [falling, full curve, poor fit].
With `COc1ccc2cc(CN(Cc3cccnc3)Cc3nnnn3Cc3ccccc3)c(=O)[nH]c2c1`, the AC50 under setting [1] was 3.55 µM [rising, single point].
Take `Cc1nn2cc(-c3ccccc3)nc2s1`: the AC50 under setting [1] is 12.6 µM [falling, single point].
Regarding `O=C(CCOc1ccccc1)Nc1ccccc1F`, under setting [1], the AC50 is 12.6 µM [falling, partial curve].
For the compound `c1nc(NCc2ccc3c(c2)OCO3)c2cc(-c3ccc4c(c3)OCCO4)ccc2n1`, under setting [1], the AC50 was 20.6 µM [falling, single point] and 29.1 µM [falling, single point].
On to `CC1(C)Cc2c(sc(NC(=O)c3ccco3)c2C(=O)O)CO1`, for which, under setting [1], the AC50 was 8.2 µM [falling, partial curve].
Consider `CC(C)OCCCNC(=O)c1ccc(NS(C)(=O)=O)cc1`, for which the AC50 under setting [1] was 3.26 µM [falling, single point].
In the case of `C/C(CC(=O)NC12CC3CC(CC(C3)C1)C2)=N\NC(=O)Cc1cccs1`, the AC50 under setting [1] was 5.8 µM [rising, single point].
Consider `Cc1ccc(CS(=O)(=O)CCC(=O)NCCC2=CCCCC2)cc1`, for which, under setting [1], the AC50 was 2.82 µM [rising, single point].
As for `COc1cc(C(=O)c2c(C)c(CCC#N)n3ccccc23)cc(OC)c1OC`, the AC50 under setting [2] was 3.98 µM [falling, partial curve, poor fit].
As for `O=C(c1ccco1)N1CCN(c2ccc(Cl)cc2)CC1`, under setting [1], the AC50 is 29.1 µM [rising, single point].
For `Cc1cc(NC(=O)Cc2ccsc2)ccc1Br`, the AC50 under setting [1] was 14.1 µM [rising, partial curve, poor fit].
The same measure, in the same setting: next, `Cc1cccc(C)c1NC(=S)NCCc1ccccn1`: 11.6 µM [rising, partial curve, poor fit]; `Cc1ccc(/C=C2\SC(=S)N(CCCC(=O)NNC(=O)c3ccccc3O)C2=O)cc1`: 2.51 µM [falling, full curve, poor fit]; `c1ccc(CCC2Cc3ccccc3N2)cc1` (stereo unspecified): 20.6 µM [rising, single point].
Take `COc1ccc(C(=O)Nc2nc(-c3ccc(S(=O)(=O)N4CCOCC4)cc3)cs2)cc1`: the AC50 under setting [1] was 20.6 µM [falling, single point].
For the compound `CC(=O)c1ccc(NC(=O)c2ccccc2Sc2ncnc3sc(C)c(C)c23)cc1`, the AC50 under setting [1] is 29.1 µM [falling, single point].
For the compound `COC(=O)CNC(=O)COc1ccccc1`, under setting [1], the AC50 is 2.06 µM [rising, partial curve, poor fit].
Take `CCOC(=O)c1ccc(NC(=O)CSC2=NC(=O)C(CC)C(=O)N2)cc1` (stereo unspecified): under setting [1], the AC50 was 29.1 µM [falling, single point].
Same read-out and setting: next, `c1ccc2c(c1)CC1(CCCC1)n1nnnc1-2`: 35.5 µM [rising, single point]; `NS(=O)(=O)c1cccc(NC(=O)CSc2nc3ccccc3c(=O)n2Cc2ccco2)c1`: 23.1 µM [falling, single point].
Regarding `Cc1cc(C)cc(NC(=O)CCC(=O)N2CCSc3ccccc32)c1`, the AC50 under setting [1] is 5.62 µM [falling, full curve].
On to `O=C(CN1CCN(Cc2ccccc2Cl)C1=O)NC1CCCCCC1`, for which, under setting [1], the AC50 is 11.6 µM [rising, single point].
For `Cc1nn(-c2ccccc2)c(C)c1C(=O)OCC(=O)NC(=O)NC1CCCCC1`, under setting [1], the AC50 was 11.2 µM [falling, partial curve].
Still for that read-out and setting: for `N=c1c2c(n(Cc3cccc(Cl)c3)c3c1CCC3)CCCC2` the value was 10.3 µM [falling, partial curve, poor fit]; for `O=C(NC(=S)Nc1ccccc1Br)C1CCC1`, 1.12 µM [falling, full curve].
On to `Cn1c(=O)n(C)c2cc(NC(=O)CCc3ccccc3)c(Br)cc21`, for which the AC50 under setting [1] is 11.2 µM [rising, partial curve, poor fit].
With `CCOC(=O)c1c(N)sn(-c2ccccc2)c1=S`, the AC50 under setting [1] is 4.61 µM [rising, partial curve, poor fit].
As for `CCCC(C)NC(=O)CN(Cc1ccco1)S(=O)(=O)c1ccccc1` (stereo unspecified), the AC50 under setting [1] is 29.1 µM [rising, single point].
Turning to `COc1ccc(C(=O)NC(c2ccc(Cl)cc2)c2cc(Cl)c3cccnc3c2O)cc1` (stereo unspecified), the AC50 under setting [1] was 14.1 µM [rising, partial curve, poor fit].
Turning to `Cc1ccc(-n2nc(C)c(Sc3ccccc3[N+](=O)[O-])c2N)cc1`, the AC50 under setting [2] is 32.6 µM [falling, partial curve, poor fit].
As to `CCOc1ncccc1C(=O)NCc1ccc(OC)cc1`, the AC50 under setting [1] is 23.1 µM [falling, single point].
For `O=C(Nc1ccc(-c2nc3cc(NC(=O)c4cccs4)ccc3o2)cc1)c1cccs1`, the AC50 under setting [1] was 7.94 µM [falling, partial curve, poor fit].

Values taken from PubChem BioAssay AID493014 (National Center for Advancing Translational Sciences (NCATS), 2011).
